From the supplement of paper PMC10849652
This is one part of the list.

By UniProt entry, the sequences of proteins in these tests, tags left out. Where a name states a change or a piece, a line headed by the entry shows the natural chain unless it says otherwise.
UniProt Q9NVM4: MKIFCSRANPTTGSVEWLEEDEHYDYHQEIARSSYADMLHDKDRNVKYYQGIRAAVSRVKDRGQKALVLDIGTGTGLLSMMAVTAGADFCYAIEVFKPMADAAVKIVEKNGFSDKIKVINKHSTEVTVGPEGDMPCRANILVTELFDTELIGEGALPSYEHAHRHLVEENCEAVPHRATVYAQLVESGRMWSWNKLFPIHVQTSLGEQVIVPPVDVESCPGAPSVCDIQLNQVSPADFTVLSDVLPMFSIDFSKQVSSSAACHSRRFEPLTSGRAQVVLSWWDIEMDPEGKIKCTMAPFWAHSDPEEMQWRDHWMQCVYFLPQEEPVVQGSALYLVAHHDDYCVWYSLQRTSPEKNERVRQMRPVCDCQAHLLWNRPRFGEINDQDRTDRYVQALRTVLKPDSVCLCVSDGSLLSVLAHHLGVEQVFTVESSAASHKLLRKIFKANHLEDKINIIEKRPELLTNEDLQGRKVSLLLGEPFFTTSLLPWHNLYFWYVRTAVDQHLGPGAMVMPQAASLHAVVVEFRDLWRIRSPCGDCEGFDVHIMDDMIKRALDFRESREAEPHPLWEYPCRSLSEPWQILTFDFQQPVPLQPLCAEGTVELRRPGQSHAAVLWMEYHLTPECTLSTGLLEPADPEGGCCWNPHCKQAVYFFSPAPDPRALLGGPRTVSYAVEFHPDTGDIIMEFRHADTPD
UniProt P30044: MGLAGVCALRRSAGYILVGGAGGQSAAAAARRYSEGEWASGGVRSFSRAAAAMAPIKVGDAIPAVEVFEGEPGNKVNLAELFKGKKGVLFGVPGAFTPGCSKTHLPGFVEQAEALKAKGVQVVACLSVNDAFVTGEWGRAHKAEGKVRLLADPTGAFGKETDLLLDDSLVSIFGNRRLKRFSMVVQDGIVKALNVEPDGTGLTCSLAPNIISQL
UniProt P30041: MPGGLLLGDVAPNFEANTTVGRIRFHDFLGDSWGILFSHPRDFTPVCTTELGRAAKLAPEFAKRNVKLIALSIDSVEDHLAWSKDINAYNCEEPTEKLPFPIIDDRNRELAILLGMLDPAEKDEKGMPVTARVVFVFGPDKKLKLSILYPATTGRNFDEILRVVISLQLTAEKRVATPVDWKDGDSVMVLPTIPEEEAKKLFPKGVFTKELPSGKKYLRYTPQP
UniProt P35813: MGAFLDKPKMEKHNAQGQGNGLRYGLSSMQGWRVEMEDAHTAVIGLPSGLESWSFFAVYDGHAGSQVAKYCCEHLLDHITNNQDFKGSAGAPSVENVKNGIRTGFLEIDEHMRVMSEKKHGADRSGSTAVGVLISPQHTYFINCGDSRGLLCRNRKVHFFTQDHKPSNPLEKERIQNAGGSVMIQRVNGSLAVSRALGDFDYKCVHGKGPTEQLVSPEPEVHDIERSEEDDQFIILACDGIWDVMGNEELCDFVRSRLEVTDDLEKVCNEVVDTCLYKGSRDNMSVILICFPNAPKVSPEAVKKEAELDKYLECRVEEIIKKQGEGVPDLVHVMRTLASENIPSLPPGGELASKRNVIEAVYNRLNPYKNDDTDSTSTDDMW
UniProt P67775, whole entry, looked up: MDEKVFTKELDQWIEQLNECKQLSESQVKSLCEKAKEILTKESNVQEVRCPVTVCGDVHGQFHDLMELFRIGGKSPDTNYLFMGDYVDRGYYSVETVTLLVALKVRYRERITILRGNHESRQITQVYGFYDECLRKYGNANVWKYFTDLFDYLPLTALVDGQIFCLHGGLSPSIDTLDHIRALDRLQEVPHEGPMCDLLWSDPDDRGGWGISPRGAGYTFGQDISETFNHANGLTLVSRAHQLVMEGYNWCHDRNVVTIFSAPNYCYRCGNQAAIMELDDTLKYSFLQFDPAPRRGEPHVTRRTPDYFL
UniProt P63151: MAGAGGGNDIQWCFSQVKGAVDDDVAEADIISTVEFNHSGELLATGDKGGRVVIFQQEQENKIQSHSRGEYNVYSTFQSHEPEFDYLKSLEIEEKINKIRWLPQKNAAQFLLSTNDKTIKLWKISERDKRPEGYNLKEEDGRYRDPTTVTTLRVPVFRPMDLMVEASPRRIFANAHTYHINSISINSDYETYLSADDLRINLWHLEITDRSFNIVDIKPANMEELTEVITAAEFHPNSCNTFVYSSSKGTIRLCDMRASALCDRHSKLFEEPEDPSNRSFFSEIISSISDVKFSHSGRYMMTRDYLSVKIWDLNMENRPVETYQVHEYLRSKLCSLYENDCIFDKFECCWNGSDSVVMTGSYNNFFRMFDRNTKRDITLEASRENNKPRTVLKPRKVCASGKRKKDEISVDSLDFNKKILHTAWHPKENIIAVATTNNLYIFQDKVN
UniProt O94806: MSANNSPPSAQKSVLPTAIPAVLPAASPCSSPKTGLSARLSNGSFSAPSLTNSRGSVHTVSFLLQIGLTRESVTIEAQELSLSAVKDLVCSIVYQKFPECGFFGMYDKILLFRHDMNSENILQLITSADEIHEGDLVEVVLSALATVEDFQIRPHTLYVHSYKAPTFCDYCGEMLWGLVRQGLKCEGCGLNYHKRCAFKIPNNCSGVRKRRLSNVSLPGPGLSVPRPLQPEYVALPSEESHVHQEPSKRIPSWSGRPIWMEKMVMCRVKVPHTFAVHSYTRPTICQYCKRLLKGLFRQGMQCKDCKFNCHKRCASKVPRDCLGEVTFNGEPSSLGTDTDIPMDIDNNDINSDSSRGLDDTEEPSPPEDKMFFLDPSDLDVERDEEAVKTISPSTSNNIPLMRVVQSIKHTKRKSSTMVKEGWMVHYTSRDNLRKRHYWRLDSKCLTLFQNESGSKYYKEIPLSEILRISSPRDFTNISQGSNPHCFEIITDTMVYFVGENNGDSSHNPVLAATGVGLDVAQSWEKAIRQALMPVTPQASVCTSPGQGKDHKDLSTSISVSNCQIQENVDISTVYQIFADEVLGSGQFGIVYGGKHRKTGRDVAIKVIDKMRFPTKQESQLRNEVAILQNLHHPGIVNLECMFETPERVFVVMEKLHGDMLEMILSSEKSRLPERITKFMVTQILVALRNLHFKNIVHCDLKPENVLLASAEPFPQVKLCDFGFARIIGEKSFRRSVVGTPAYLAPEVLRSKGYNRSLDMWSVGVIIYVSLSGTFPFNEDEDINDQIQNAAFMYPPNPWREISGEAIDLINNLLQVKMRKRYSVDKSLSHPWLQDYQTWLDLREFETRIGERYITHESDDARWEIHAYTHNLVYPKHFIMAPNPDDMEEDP
UniProt P50897: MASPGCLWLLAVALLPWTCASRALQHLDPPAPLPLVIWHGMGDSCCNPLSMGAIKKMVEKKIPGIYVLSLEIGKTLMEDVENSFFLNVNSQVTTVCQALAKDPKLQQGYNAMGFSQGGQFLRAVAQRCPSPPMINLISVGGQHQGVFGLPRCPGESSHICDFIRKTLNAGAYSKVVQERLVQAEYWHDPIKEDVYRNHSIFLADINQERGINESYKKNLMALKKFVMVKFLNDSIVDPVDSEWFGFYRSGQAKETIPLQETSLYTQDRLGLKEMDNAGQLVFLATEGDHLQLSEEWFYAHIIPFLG
UniProt P30153, whole entry, looked up: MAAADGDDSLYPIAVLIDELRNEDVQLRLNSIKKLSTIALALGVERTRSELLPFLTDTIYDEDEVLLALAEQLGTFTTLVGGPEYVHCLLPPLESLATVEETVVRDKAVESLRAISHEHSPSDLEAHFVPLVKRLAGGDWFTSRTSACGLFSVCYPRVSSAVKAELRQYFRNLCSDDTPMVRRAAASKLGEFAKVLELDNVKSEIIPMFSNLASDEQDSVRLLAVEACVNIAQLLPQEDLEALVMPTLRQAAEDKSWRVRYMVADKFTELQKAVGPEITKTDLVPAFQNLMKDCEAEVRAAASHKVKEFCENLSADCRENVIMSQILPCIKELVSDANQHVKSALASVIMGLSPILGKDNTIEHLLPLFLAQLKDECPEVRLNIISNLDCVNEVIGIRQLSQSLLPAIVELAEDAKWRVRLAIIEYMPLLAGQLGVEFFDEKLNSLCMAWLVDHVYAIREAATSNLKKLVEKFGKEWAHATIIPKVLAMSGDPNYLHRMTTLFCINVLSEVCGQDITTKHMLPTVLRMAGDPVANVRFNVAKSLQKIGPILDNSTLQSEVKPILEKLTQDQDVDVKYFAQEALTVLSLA
UniProt O43741: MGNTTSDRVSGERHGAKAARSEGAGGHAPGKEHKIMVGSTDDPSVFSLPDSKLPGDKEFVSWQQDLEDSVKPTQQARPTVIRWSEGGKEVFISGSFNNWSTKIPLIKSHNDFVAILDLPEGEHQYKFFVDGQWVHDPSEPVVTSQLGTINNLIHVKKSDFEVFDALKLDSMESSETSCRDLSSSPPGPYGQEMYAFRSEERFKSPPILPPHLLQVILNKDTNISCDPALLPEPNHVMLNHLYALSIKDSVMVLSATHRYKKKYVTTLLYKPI
UniProt P30048: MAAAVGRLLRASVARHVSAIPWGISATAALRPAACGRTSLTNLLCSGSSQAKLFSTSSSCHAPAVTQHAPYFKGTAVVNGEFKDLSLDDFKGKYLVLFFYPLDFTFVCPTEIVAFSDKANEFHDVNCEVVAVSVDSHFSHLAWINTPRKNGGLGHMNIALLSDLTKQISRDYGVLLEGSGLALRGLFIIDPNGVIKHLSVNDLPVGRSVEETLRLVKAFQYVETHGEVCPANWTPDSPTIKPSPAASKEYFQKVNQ
UniProt P50336: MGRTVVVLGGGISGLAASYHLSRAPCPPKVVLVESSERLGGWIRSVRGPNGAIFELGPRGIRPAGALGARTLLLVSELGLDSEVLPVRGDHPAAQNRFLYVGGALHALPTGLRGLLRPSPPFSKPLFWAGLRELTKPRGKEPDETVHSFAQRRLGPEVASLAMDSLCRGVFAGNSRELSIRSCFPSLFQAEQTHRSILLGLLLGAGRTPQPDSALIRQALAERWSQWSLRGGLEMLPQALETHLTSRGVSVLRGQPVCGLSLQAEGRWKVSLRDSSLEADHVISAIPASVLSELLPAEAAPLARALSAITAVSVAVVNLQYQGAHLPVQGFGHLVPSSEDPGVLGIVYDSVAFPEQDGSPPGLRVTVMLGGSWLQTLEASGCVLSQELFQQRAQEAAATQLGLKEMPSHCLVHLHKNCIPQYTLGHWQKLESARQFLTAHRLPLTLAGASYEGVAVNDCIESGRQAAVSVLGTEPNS
UniProt Q13523: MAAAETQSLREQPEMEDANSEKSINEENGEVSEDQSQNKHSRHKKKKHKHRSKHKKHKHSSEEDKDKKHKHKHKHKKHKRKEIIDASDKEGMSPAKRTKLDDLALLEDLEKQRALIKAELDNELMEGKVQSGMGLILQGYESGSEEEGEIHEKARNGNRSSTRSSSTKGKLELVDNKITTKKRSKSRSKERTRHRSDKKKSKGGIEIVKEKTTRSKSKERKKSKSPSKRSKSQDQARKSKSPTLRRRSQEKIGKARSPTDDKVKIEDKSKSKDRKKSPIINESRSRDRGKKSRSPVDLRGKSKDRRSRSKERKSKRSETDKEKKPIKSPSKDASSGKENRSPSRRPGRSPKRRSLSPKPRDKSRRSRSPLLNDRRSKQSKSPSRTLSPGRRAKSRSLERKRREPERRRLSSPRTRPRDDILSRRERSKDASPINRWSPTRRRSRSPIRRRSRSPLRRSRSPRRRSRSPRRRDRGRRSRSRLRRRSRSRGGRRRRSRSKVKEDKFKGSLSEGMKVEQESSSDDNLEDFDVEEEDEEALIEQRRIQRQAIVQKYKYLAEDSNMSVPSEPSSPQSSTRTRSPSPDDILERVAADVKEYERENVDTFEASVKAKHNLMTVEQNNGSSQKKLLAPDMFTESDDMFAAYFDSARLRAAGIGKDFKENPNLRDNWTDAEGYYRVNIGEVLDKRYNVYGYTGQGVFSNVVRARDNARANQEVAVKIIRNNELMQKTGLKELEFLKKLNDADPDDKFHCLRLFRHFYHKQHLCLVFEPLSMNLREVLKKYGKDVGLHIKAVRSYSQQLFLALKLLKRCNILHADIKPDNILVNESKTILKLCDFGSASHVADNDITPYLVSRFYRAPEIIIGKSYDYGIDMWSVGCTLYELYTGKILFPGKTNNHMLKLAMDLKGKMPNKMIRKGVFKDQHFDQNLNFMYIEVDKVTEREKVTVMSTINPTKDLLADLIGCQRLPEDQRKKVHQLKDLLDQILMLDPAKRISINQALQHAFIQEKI
UniProt P30405: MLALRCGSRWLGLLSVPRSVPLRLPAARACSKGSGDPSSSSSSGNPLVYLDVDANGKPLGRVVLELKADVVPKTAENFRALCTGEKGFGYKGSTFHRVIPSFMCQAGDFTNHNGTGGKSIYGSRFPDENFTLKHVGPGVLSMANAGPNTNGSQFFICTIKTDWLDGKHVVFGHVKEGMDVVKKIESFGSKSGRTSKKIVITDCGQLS
UniProt Q13162: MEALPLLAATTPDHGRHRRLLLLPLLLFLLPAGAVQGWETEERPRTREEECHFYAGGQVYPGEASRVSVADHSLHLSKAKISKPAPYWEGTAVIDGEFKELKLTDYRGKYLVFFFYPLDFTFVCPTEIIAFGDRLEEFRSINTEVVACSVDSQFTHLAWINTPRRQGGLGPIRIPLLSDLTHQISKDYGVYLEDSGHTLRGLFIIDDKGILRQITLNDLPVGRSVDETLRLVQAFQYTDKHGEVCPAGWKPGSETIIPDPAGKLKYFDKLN

Key:
Assay in all cases: log2 fold change, soluble protein after heating vs DMSO (PISA); higher = thermal stabilisation; K562 lysate, 10 uM; active = over 0.2 and 3.5 SD of the protein, either way, in both replicates (recomputed)
[1] = compound: NCC(=O)Nc1ccc(-n2nc(C(F)(F)F)cc2-c2ccc3c(ccc4ccccc43)c2)cc1
How it was run: (§1)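 The values are log-two fold changes in thermal stability compared with solvent controls and come from duplicates. They were obtained by TMTpro 16plex LC-MS/MS, with channel sums equalised, on the supernatant after 21,000xg for 90 min. That supernatant came from crude K562 extract at 1 mg/mL protein treated with 10 μM compound for 30 min, heated for 3 min across 48°C-58°C, pooled and brought to 0.5% NP-40 at 4°C.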

vorinostat = compound: O=C(CCCCCCC(=O)Nc1ccccc1)NO [vorinostat]
How it was run: as §1

silmitasertib = compound: O=C(O)c1ccc2c(c1)nc(Nc1cccc(Cl)c1)c1ccncc12 [silmitasertib]
How it was run: as §1

[2] = compound: O=C1NC(=O)C(c2cnc3ccccn23)=C1c1cn2c3c(cc(F)cc13)CN(C(=O)N1CCCCC1)CC2
How it was run: as §1

entospletinib = compound: c1cn2cc(-c3ccc4cn[nH]c4c3)nc(Nc3ccc(N4CCOCC4)cc3)c2n1 [entospletinib]
How it was run: as §1

Measured: log2 fold change

PPP1R3D (UniProt O95685)
inactive: [1] -0.025 | vorinostat -0.115 | silmitasertib 0.037 | [2] -0.016

PRMT7 (UniProt Q9NVM4)
inactive: [1] -0.017 | vorinostat -0.174 | silmitasertib -0.011 | [2] 0.04 | entospletinib -0.018

PRPF39 (UniProt Q86UA1)
inactive: [1] 0.002 | vorinostat -0.06 | silmitasertib 0.008 | [2] -0.009 | entospletinib 0.022

PRDM2 (UniProt Q13029)
inactive: [1] 0.035 | vorinostat 0.018 | silmitasertib 0.18

PRIM2 (UniProt P49643)
inactive: [1] -0.008 | silmitasertib 0.09 | [2] 0 | entospletinib 0.003
active: vorinostat -0.296

PRDX5 (UniProt P30044)
inactive: [1] -0.07 | vorinostat 0.061 | silmitasertib -0.002 | [2] 0 | entospletinib 0.004

PRC1 (UniProt O43663)
active: vorinostat -0.387
inactive: [1] 0.012 | silmitasertib 0.046 | [2] -0.02 | entospletinib 0.023

PPP1R21 (UniProt Q6ZMI0)
inactive: [1] -0.034 | vorinostat -0.051 | silmitasertib 0.002 | [2] 0.031 | entospletinib 0.032

PPM1G (UniProt O15355)
inactive: [1] -0.034 | vorinostat -0.074 | silmitasertib 0.008 | [2] -0.01 | entospletinib 0.001

PRKRA (UniProt O75569)
inactive: [1] 0.023 | silmitasertib -0.022 | [2] 0.024 | entospletinib 0.041
active: vorinostat -0.773

PPP1R9B (UniProt Q96SB3)
inactive: [1] 0 | vorinostat 0.166 | silmitasertib 0.035 | [2] 0 | entospletinib 0.018

PROS1 (UniProt P07225)
inactive: [1] -0.017 | vorinostat 0.048 | silmitasertib 0.004 | [2] -0.016 | entospletinib -0.045

PPT2 isoform 3 (UniProt Q9UMR5)
active: vorinostat 0.398
inactive: [1] 0.055 | silmitasertib 0.034 | [2] -0.018 | entospletinib -0.006

PRDX6 (UniProt P30041)
inactive: [1] -0.016 | vorinostat 0.077 | silmitasertib -0.022 | [2] -0.002 | entospletinib -0.014

PPP1R8 (UniProt Q12972)
inactive: [1] 0.02 | vorinostat 0.04 | silmitasertib -0.009 | [2] -0.017 | entospletinib 0.025

PPIL4 (UniProt Q8WUA2)
inactive: [1] 0.023 | vorinostat -0.075 | silmitasertib 0.027 | [2] -0.042 | entospletinib -0.077

PRKAG2 (UniProt Q9UGJ0)
inactive: [1] -0.11 | vorinostat -0.035 | silmitasertib 0.216 | [2] -0.06 | entospletinib 0

PPP2R5A (UniProt Q15172)
inactive: [1] 0.015 | vorinostat -0.151 | silmitasertib 0.036 | [2] 0.045 | entospletinib -0.018

PPP1CC isoform 2 (UniProt P36873)
inactive: [1] 0.007 | vorinostat 0.027 | silmitasertib 0.006 | [2] -0.064 | entospletinib 0.001

PRPF38A (UniProt Q8NAV1)
inactive: [1] -0.059 | vorinostat -0.278 | silmitasertib 0.03 | [2] 0.03 | entospletinib 0.055

PRPF38B (UniProt Q5VTL8)
inactive: [1] 0.007 | vorinostat -0.077 | silmitasertib -0.043 | [2] 0.025 | entospletinib 0.026

PRPF18 (UniProt Q99633)
inactive: [1] -0.002 | vorinostat -0.097 | silmitasertib -0.007 | [2] 0.032 | entospletinib -0.009

PPP6R2 isoform 5 (UniProt O75170)
inactive: [1] 0.052 | vorinostat 0 | silmitasertib 0.015 | [2] 0.025 | entospletinib -0.004

PPM1A isoform 3 (UniProt P35813)
inactive: [1] 0.14 | vorinostat -0.025 | silmitasertib 0.044 | [2] -0.069 | entospletinib -0.011

PPP3R1 (UniProt P63098)
inactive: [1] -0.019 | vorinostat 0.137 | silmitasertib -0.006 | [2] 0.023 | entospletinib -0.019

PRMT5 (UniProt O14744)
inactive: [1] 0.012 | vorinostat 0.013 | silmitasertib -0.037 | [2] 0.001 | entospletinib 0.013

PPP2R5B (UniProt Q15173)
inactive: [1] 0.077 | vorinostat -0.075 | silmitasertib -0.007 | [2] -0.065 | entospletinib 0.028

PPP2CA (UniProt P67775)
inactive: [1] -0.079 | vorinostat 0.076 | silmitasertib -0.021 | [2] -0.004 | entospletinib 0

PRKCQ (UniProt Q04759)
inactive: [1] 0.014 | vorinostat -0.172 | silmitasertib 0.009 | [2] -0.124 | entospletinib -0.008

PPP1R14B (UniProt Q96C90)
inactive: [1] 0.052 | vorinostat 0.129 | silmitasertib -0.011 | [2] 0.028 | entospletinib -0.013

PROSER2 (UniProt Q86WR7)
inactive: [1] -0.005 | vorinostat -0.1 | silmitasertib -0.008 | [2] -0.027 | entospletinib 0.041

PRKCSH (UniProt P14314)
inactive: [1] 0.002 | vorinostat 0.141 | silmitasertib -0.015 | [2] -0.001 | entospletinib 0.001

PPP2R2A isoform 2 (UniProt P63151)
inactive: [1] 0.034 | vorinostat 0.077 | silmitasertib -0.032 | [2] 0.011 | entospletinib 0

PRKD3 (UniProt O94806)
inactive: [1] -0.116 | vorinostat -0.182 | silmitasertib 0.224 | [2] 0.076 | entospletinib 0.013

PRMT9 (UniProt Q6P2P2)
inactive: [1] 0.008 | vorinostat 0.002 | silmitasertib -0.013 | [2] 0.019 | entospletinib 0.002

PPP3CA isoform 2 (UniProt Q08209)
inactive: [1] 0.006 | vorinostat 0.042 | silmitasertib 0.014 | [2] -0.025 | entospletinib 0.066

PPT1 (UniProt P50897)
inactive: [1] -0.007 | vorinostat 0.059 | silmitasertib -0.023 | [2] -0.006 | entospletinib -0.015

PPP1R9A isoform 3 (UniProt Q9ULJ8)
inactive: [1] 0.139 | vorinostat 0.167 | silmitasertib 0.013 | [2] -0.034 | entospletinib -0.005

PRKCI (UniProt P41743)
inactive: [1] -0.032 | vorinostat -0.119 | silmitasertib -0.009 | [2] 0.006 | entospletinib 0.023

PRAME (UniProt P78395)
active: vorinostat -0.283
inactive: [1] 0.025 | silmitasertib 0.043 | [2] 0.004 | entospletinib 0.048

PRKCB isoform 2 (UniProt P05771)
inactive: [1] 0.046 | vorinostat -0.145 | silmitasertib 0.012 | [2] -0.164 | entospletinib 0.004

PPP2R1A (UniProt P30153)
inactive: [1] -0.006 | vorinostat -0.101 | silmitasertib 0.017 | [2] -0.017 | entospletinib 0.002

PRKAB2 (UniProt O43741)
inactive: [1] -0.006 | vorinostat -0.009 | silmitasertib 0.111 | [2] 0.096 | entospletinib 0.013

PRDX3 (UniProt P30048)
inactive: [1] -0.012 | vorinostat 0.094 | silmitasertib -0.036 | [2] 0.015 | entospletinib -0.007

PPM1F (UniProt P49593)
inactive: [1] 0.004 | vorinostat 0.002 | silmitasertib 0.042 | [2] 0 | entospletinib -0.007

PPOX (UniProt P50336)
inactive: [1] 0 | vorinostat -0.142 | silmitasertib 0.11 | [2] 0.016 | entospletinib 0

PRPF4B (UniProt Q13523)
inactive: [1] 0 | vorinostat 0.108 | silmitasertib 0.049 | [2] 0.004 | entospletinib -0.033

PPIF (UniProt P30405)
inactive: [1] 0.01 | vorinostat 0.056 | silmitasertib -0.016 | [2] 0.017 | entospletinib -0.013

PRKCSH (UniProt K7ELL7)
inactive: [1] 0.132 | vorinostat 0.109 | silmitasertib 0.016 | [2] 0.016 | entospletinib -0.097

PRMT6 (UniProt Q96LA8)
inactive: [1] -0.019 | vorinostat -0.059 | silmitasertib 0.077 | [2] 0.027 | entospletinib 0.042

PPWD1 (UniProt Q96BP3)
inactive: [1] 0.048 | vorinostat 0.051 | silmitasertib -0.036 | [2] -0.014 | entospletinib -0.006

PRPF4 (UniProt O43172)
inactive: [1] 0.004 | vorinostat 0.086 | silmitasertib 0.014 | [2] 0.017 | entospletinib 0.008

Random excerpt: two records from the list, in no set order.
PRMT6 (UniProt Q96LA8)
inactive: [1] -0.019 | vorinostat -0.059 | silmitasertib 0.077 | [2] 0.027 | entospletinib 0.042

PRKCSH (UniProt K7ELL7)
inactive: [1] 0.132 | vorinostat 0.109 | silmitasertib 0.016 | [2] 0.016 | entospletinib -0.097

Remaining list, next part

PRDX4 (UniProt Q13162)
inactive: [1] 0.027 | vorinostat 0.078 | silmitasertib 0.001 | [2] -0.04 | entospletinib 0.025
